# Earlier results as cited in patent publication US10226474B2, “Methods and compositions for treatment of non-alcoholic steatohepatitis” (Temple University—Of The Commonwealth System of Higher …, priority 2017, dated 2019).
# For at least one compound, name, drawing or mass did not settle the structure.
# How the values were obtained:
# [1] = system: Nonalcoholic Steatohepatitis patients; conditions: PIVENS histologic response criteria; 0.025 considered statistically significant; cited from earlier work
# [2] = system: non-diabetic, insulin-resistant individuals; conditions: Kernan et al. NEJM 2016; cited from earlier work
# [3] = system: NASH patients; conditions: cited from earlier work
Structure (SMILES),histologic improvement compared with placebo [1],risk of subsequent stroke or heart attack [2],"patients achieving the primary end point (decrease in NAS score of at least 2 points without worsening of fibrosis) ([3]; 25 mg, 72 weeks, placebo 23%, p=0.002)","proportion of patients with resolution of NASH ([3]; 25 mg, 72 weeks, vs placebo)",liver fibrosis (determined by biopsy) ([3]; 72 weeks),FIB-4 and APRI scores ([3]; compared to baseline)
CCc1ccc(CCOc2ccc(CC3SC(=O)NC3=O)cc2)nc1 (stereo not drawn) [pioglitazone],not significant,significantly reduced,–,–,–,–
CC[C@H]1[C@@H](O)[C@@H]2[C@H](CC[C@]3(C)[C@@H]([C@H](C)CCC(=O)O)CC[C@@H]23)[C@@]2(C)CC[C@@H](O)C[C@@H]12 [obeticholic acid],–,–,Forty-five,did not differ in patients treated with drug vs. placebo,significantly reversed liver fibrosis,significant reduction
